According to publication PMC11876615:
Results are given in words; binding and its absence hold for the method and conditions named. Binding seen in cells or lysates may run through a third protein. Some entries that bind do so weakly or less than the wild type. For some of these results: Sequences can lack the tags named with a protein.

Sequences of proteins named here, by UniProt entry; tags and fusion partners are left off.
UniProt P46527: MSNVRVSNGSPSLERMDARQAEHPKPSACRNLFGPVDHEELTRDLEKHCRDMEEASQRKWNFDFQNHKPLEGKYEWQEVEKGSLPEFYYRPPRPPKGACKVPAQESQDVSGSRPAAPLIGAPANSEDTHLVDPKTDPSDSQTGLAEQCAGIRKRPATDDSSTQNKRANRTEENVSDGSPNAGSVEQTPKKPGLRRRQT
UniProt Q6IAA8: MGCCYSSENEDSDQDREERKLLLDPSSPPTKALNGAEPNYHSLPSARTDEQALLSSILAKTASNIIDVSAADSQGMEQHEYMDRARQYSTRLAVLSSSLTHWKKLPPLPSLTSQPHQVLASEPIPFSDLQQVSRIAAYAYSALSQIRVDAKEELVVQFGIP
UniProt P19474: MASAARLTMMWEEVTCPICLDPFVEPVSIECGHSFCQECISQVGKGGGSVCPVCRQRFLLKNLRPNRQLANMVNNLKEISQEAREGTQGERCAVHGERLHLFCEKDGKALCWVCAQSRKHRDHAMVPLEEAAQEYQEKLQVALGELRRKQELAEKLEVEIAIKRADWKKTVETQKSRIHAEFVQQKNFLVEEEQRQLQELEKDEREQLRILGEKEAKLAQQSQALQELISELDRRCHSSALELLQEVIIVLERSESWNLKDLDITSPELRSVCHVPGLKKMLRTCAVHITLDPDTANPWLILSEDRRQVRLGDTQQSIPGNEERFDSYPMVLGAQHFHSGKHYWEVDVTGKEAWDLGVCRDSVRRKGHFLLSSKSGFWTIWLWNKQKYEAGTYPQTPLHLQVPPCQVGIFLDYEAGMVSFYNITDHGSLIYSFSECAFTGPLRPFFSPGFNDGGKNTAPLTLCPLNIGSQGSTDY

Legend:
[1] = molecular target: cyclin-dependent kinase inhibitor 1B (CDKN1B or P27KIP1) (human (endogenous in MDA-MB-231)) (UniProt P46527); assay: co-IP; lysosomal extracts of MDA-MB-231 cells transfected with the indicated constructs; IP of P27KIP1, immunoblotting against P27KIP1, TRIM21 and LAMTOR1
[2] = molecular target: T1, Flag-tagged hSPAR (human small regulatory polypeptide of amino acid response) (human); assay: co-IP; MDA-MB-231 cells transfected with Vector Ctrl, ΔATG1+2, Flag-hSPAR or Flag-hSPAR-C; IP lysis buffer (20 mM Tris-HCl pH 8.0, 137 mM NaCl, 1% Nonidet P-40, 2 mM EDTA); IP with antibodies to TRIM21, Flag, P27KIP1 or LAMTOR1 overnight at 4 °C, protein A/G agarose; immunoblotting
T1 sequence: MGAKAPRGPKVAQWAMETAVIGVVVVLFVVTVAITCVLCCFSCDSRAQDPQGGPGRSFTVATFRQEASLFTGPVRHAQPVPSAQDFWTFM

[3] = molecular target: LAMTOR1 (human (endogenous in MDA-MB-231)) (UniProt Q6IAA8); assay: as above
[4] = molecular target: Tripartite motif-containing 21 (TRIM21) (human (endogenous in MDA-MB-231)) (UniProt P19474); assay: as above

**Q.** “Tripartite motif-containing 21 (TRIM21) (from UniProt P19474 1-475)” was tested. Which binding [1] did it give?
**A.** no binding (condition: lysosomal extracts)

**Q.** And the binding [2]?
**A.** binds

**Q.** Which binding [3] does the source give for “cyclin-dependent kinase inhibitor 1B (CDKN1B or P27KIP1) (from UniProt P46527 1-198)” here?
**A.** binds

**Q.** What about the binding [4] of the same substance?
**A.** binds
